Data from PubChem BioAssay AID504847 (National Center for Advancing Translational Sciences (NCATS), 2011).
Out of some 400,000 compounds screened, about 3,700 (0.93%) were called active. The shares of active, inactive and inconclusive entries below differ from those in the screen. The call rests on the fitted dose curve; in most records, active means well fitted inhibition curve with a large enough effect; inconclusive means small, poorly fitted or top-dose-only effect, or another doubt; inactive means no such curve, though single readings can be large or run the other way. Potencies beside an inconclusive call are fits to weak or partial responses and may not hold up.

Amino acid sequences for entries named in this document (tags omitted). A change or cut given only in a name is not applied to a line headed by its entry.
UniProt P11473: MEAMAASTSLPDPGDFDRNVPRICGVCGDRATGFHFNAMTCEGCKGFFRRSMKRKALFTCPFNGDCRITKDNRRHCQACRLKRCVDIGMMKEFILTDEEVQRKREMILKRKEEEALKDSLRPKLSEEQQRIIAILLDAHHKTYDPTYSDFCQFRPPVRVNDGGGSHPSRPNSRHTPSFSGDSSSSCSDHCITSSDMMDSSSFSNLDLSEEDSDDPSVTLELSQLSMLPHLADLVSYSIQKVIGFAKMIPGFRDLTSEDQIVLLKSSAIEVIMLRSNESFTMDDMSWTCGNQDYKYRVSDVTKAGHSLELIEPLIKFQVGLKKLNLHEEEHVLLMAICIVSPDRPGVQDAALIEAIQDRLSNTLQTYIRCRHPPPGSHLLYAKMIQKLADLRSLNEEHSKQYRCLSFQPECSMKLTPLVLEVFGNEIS

The compounds below were run against Vitamin D3 receptor (Homo sapiens) (UniProt P11473) (assay: Inhibitors of the vitamin D receptor (VDR): qHTS). Details: VDR-SRC2-3 peptide fluorescence polarization, 2 h; max response, negative = inhibition: hits give low values.
Outline: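 Signal is fluorescence polarization, reporting how far test compounds block the interaction of VDR with the SRC2-3 coregulator peptide after a 2 h room-temperature incubation.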
On the % scale 0 is the no-effect control and ±100 the full control effect; potency means the concentration at half of the fitted maximal effect.

Row | Compound | Potency | max response, negative = inhibition
1 | Cc1sc(NC(=O)/C=C/C(=O)O)c(C(N)=O)c1-c1ccc(C(C)(C)C)cc1 | active: 79.4 µM | –
2 | CCCCNC(=S)N(CCN(CC)CC)Cc1cc2cc3c(cc2[nH]c1=O)OCCO3 | inconclusive: 100 µM [inhibitor, partial curve, poor fit] | –
3 | CCOC(=O)C1=C(C)N=c2s/c(=C/c3cccc([N+](=O)[O-])c3O)c(=O)n2C1c1cc(OC)c(OC)c(OC)c1 (stereo not given) | inconclusive: 56.2 µM [inhibitor, partial curve, poor fit] | –
4 | CCN1CCN(S(=O)(=O)c2ccc(Cl)c(C(=O)Nc3ccccc3N3CCCCC3)c2)CC1 | – | inactive: -3.7%
5 | Cc1c(C(=O)N2CCOCC2)c(S(=O)(=O)Nc2ccc(Br)cc2F)c(C)n1C | inconclusive: 39.8 µM [inhibitor, single point] | –
6 | O=C(C[C@H]1C/C=C/CC[C@@H](Cc2ccc(F)cc2)C(=O)OC[C@H](c2ccccc2)NC1=O)NCCO | – | inactive: -22.6%
7 | CC(C)c1cc(-c2cc(C(=O)Nc3ccccc3)on2)nc(NC2CCCC2)n1 | – | inactive: -4.07%
8 | COc1ccccc1NS(=O)(=O)c1cc(NC(C)=O)ccc1N1CCCCC1 | inconclusive: 89.1 µM [inhibitor, single point] | –
9 | COc1ccc(-n2c(SCC(=O)O)nc3sc4c(c3c2=O)CCC4)cc1 | inconclusive: 100 µM [inhibitor, single point] | –
10 | Nc1ccc(-c2nnc(-c3ccc(-c4ccccc4)cc3)o2)cc1 | inconclusive: 89.1 µM [inhibitor, single point] | –
11 | O=C1C(Cl)=C(NCc2ccco2)C(=O)c2ccccc21 | inconclusive: 100 µM [inhibitor, single point] | –
12 | O=C(NNc1nc2c(F)cc(F)cc2s1)C1COc2ccccc2O1 (stereo not given) | inconclusive: 20 µM [inhibitor, single point] | –
13 | S=c1[nH]nc(Cc2ccccc2)n1-c1ccc(Cl)cc1 | – | inactive: -1.15%
14 | Cc1cc(C)n2nc(SC(C)C(=O)NC3CCCCC3C)nc2n1 (stereo not given) | inconclusive: 89.1 µM [inhibitor, single point] | –
15 | O=C(/C=C\c1ccccc1)Nc1ccc(NC(=O)c2ccco2)cc1 | active: 20 µM | –
16 | COc1ccc(C2c3ccc4ccccc4c3Oc3ncn(CCN4CCOCC4)c(=N)c32)cc1OC (stereo not given) | – | inactive: -1.21%
17 | CC(NS(=O)(=O)c1ccc(CCC(=O)NCc2ccco2)cc1)c1ccccc1 (stereo not given) | inconclusive: 89.1 µM [inhibitor, single point] | –
18 | Cn1c(=O)c2ncn(CC(=O)NCCOCc3ccccc3Cl)c2n(C)c1=O | inconclusive: 4.47 µM [inhibitor, full curve, poor fit] | –
19 | O=C1N/C(=N\S(=O)(=O)Cc2ccccc2)S/C1=C/c1cc([N+](=O)[O-])ccc1O | inconclusive: 89.1 µM [inhibitor, partial curve, poor fit] | –
20 | COc1ccc(CCC(=O)OCC(=O)Nc2sccc2C#N)cc1 | – | inactive: -5.04%
21 | CCOc1cc(/C=C2/C(=O)ON=C2C)ccc1O | inconclusive: 100 µM [inhibitor, partial curve, poor fit] | –
22 | O=[N+]([O-])c1ccc(Oc2cccnc2)c([N+](=O)[O-])c1 | inconclusive: 35.5 µM [inhibitor, single point] | –

Pulled by structure from above, three records:
Row | Compound | Potency | max response, negative = inhibition
15 | O=C(/C=C\c1ccccc1)Nc1ccc(NC(=O)c2ccco2)cc1 | active: 20 µM | –
17 | CC(NS(=O)(=O)c1ccc(CCC(=O)NCc2ccco2)cc1)c1ccccc1 (stereo not given) | inconclusive: 89.1 µM [inhibitor, single point] | –
21 | CCOc1cc(/C=C2/C(=O)ON=C2C)ccc1O | inconclusive: 100 µM [inhibitor, partial curve, poor fit] | –

Next entries:

Row | Compound | Potency | max response, negative = inhibition
23 | COc1ccc2nc3c(cc2c1)Cn1c-3nc2ccccc2c1=O | inconclusive: 17.8 µM [inhibitor, full curve, poor fit] | –
24 | CC(C)(C)C1CCc2c(sc(NC(=O)c3cc(C4CC4)on3)c2C#N)C1 (stereo not given) | inconclusive: 89.1 µM [inhibitor, partial curve, poor fit] | –
25 | O=[N+]([O-])c1cccc(SSc2cccc([N+](=O)[O-])c2)c1 | active: 3.98 µM | –
26 | COc1ccc(C2/C=C\CN(CC(C)C)CC(=O)N2Cc2cccc(F)c2)cc1 (stereo not given) | inconclusive: 89.1 µM [inhibitor, partial curve] | –
27 | Cc1ccc(Cn2c(C)c(CNCCCc3ccccc3)c(C(=O)O)c2C)cc1 | – | inactive: 8.18%
28 | Cc1nnc(SCC(=O)Nc2nsc(-c3ccc(C(C)(C)C)cc3)n2)s1 | inconclusive: 89.1 µM [inhibitor, partial curve, poor fit] | –
29 | CC1CCN(S(=O)(=O)c2ccc3c(c2)CCC(=O)N3CC(=O)Nc2cccc(C#N)c2)CC1 | – | inactive: 17.7%
30 | CCCCNC(=O)/C(=C\c1ccc([N+](=O)[O-])o1)NC(=O)c1ccccc1 | – | inactive: -8.46%
31 | Cc1ccc(C2=NN(CC(=O)NCCN(CC(C)C)CC(C)C)C(=O)CC2)cc1 | inconclusive: 25.1 µM [inhibitor, single point] | –
32 | CCOc1ccc(N(CC(=O)Nc2ccc(C)cc2)S(C)(=O)=O)cc1 | inconclusive: 79.4 µM [inhibitor, single point] | –
33 | Oc1c(C(Nc2cccc(C(F)(F)F)c2)c2ccncc2)ccc2cccnc12 (stereo not given) | inconclusive: 50.1 µM [inhibitor, partial curve] | –
34 | COCCSc1ccccc1C(=O)Nc1cccnc1 | inconclusive: 31.6 µM [inhibitor, single point] | –
35 | CSc1ccccc1NC(=O)CN(C)C(=O)Cc1c[nH]c2ccccc12 | – | inactive: -7.42%
36 | COc1ccccc1OCCCOc1cccc(/C=C2\SC(=O)NC2=O)c1 | inconclusive: 17.8 µM [inhibitor, partial curve, poor fit] | –
37 | CC1(C)C2CCC1(C)C(NC(=O)COC(=O)c1ccc(S(C)(=O)=O)c([N+](=O)[O-])c1)C2 (stereo not given) | inconclusive: 56.2 µM [inhibitor, partial curve, poor fit] | –
38 | O=C(Cc1c(F)cccc1Cl)Nc1cc(S(=O)(=O)N2CCOCC2)ccc1N1CCOCC1 | – | inactive: -5.46%
39 | CCOC(=O)C1CCN(Cc2ccc(F)c(F)c2)CC1 | – | inactive: 19.4%
40 | COC(=O)N1C(=O)[C@](c2ccccc2)(C2CCCCC2)N1C(=O)OC | inconclusive: 79.4 µM [inhibitor, single point] | –
41 | Cc1ccc(NC(=O)CCc2nnc3ccc(N4CCC5(CC4)OCCO5)nn23)nc1 | inconclusive: 100 µM [inhibitor, single point] | –
42 | CCOc1ccc(S(=O)(=O)NN2Cc3ccccc3C2=N)cc1 | inconclusive: 100 µM [inhibitor, partial curve, poor fit] | –
43 | COc1ccccc1N(C)S(=O)(=O)c1ccc(Cl)c(C(=O)Nc2cccc(C)n2)c1 | – | inactive: 10.6%
44 | CC1(C)CCN2CCC(C)(C)c3c(O)ccc1c32 | inconclusive: 89.1 µM [inhibitor, single point] | –

Exported as tab-separated lines: part of the list above
Row	Compound	Potency	max response, negative = inhibition
29	CC1CCN(S(=O)(=O)c2ccc3c(c2)CCC(=O)N3CC(=O)Nc2cccc(C#N)c2)CC1	–	inactive: 17.7%
44	CC1(C)CCN2CCC(C)(C)c3c(O)ccc1c32	inconclusive: 89.1 µM [inhibitor, single point]	–

Next part:

Row | Compound | Potency | max response, negative = inhibition
45 | CC(C)C(=O)Nc1ccc(-c2nc3ncccc3o2)cc1 | inconclusive: 89.1 µM [inhibitor, single point] | –
46 | COc1cc(SC#N)ccc1N=Cc1c(C)[nH]n(-c2ccc(C)cc2C)c1=O | inconclusive: 11.2 µM [inhibitor, full curve, poor fit] | –
47 | CCc1nn(CC(=O)N2CCN(c3ccc(F)cc3)CC2)c(=O)c2cc3occc3n12 | – | inactive: -5.8%
48 | CCOC(=O)c1c(NC(=O)c2cc(C)on2)sc(C)c1C | active: 79.4 µM | –
49 | Cc1noc(C)c1-c1cncnc1N(C)Cc1ccco1 | inconclusive: 44.7 µM [inhibitor, partial curve] | –
50 | CCOC(=O)c1cnc2ccc(Br)cc2c1NCCN1CCOCC1 | inconclusive: 31.6 µM [inhibitor, partial curve, poor fit] | –
51 | O=C(N/N=C/c1ccc(N2CCOCC2)s1)c1ccccc1Cl | inconclusive: 11.2 µM [inhibitor, partial curve, poor fit] | –
52 | CC1CCCN(C(=O)COC(=O)COc2ccc(C#N)cc2)C1 (stereo not given) | – | inactive: -4.28%
53 | OCc1ccnc2oc3ccccc3c12 | – | inactive: 4.04%
54 | O=C(c1csnn1)N1CCC2(CCCN(c3ccncc3)C2)CC1 | inconclusive: 79.4 µM [inhibitor, partial curve] | –
55 | COc1ccc(N2C(=O)CC(NCc3cccs3)C2=O)cc1 (stereo not given) | – | inactive: -6.78%
56 | Cc1cc(N2C(=O)C(O)=C(C(=O)c3ccco3)C2c2cccc(O)c2)no1 (stereo not given) | – | inactive: 7.65%
57 | C[C@H](NC(=O)[C@H](Cc1ccccc1)n1c(=O)[nH]c2ccccc2c1=O)C(=O)N1CCC(C(=O)O)CC1 | inconclusive: 100 µM [inhibitor, partial curve, poor fit] | –
58 | Cc1c(NC(=O)C(C)OC(=O)c2ccc([N+](=O)[O-])s2)c(=O)n(-c2ccccc2)n1C (stereo not given) | – | inactive: -9.28%
59 | COc1ccc(N(CC(=O)Nc2cccc(C)c2)S(=O)(=O)c2c(C)n[nH]c2C)cc1 | inconclusive: 79.4 µM [inhibitor, partial curve, poor fit] | –
60 | CNC(=O)/C(C#N)=C/c1c(F)cccc1Cl | inconclusive: 100 µM [inhibitor, single point] | –
61 | CCOC(=O)Oc1c(OC)cc(C(=O)O[C@@H]2C[C@@H]3CN4CCc5c([nH]c6cc(OC)ccc56)[C@H]4C[C@@H]3[C@H](C(=O)OC)[C@H]2OC)cc1OC | – | inactive: 21.9%
62 | COc1ccc2nc(NC(=O)CCc3ccc(OC)c(OC)c3)sc2c1 | inconclusive: 56.2 µM [inhibitor, partial curve, poor fit] | –
63 | Cn1c(/C(C#N)=C/c2ccccc2Br)nc2ccccc21 | inconclusive: 28.2 µM [inhibitor, full curve] | –
64 | COc1ccnc(CSC(N)=Nc2ccc(F)cc2)c1 | inconclusive: 56.2 µM [inhibitor, partial curve, poor fit] | –
65 | CCCCC(=O)Nc1ccc(N2CCCC2)cc1 | inconclusive: 79.4 µM [inhibitor, single point] | –
